According to patent US12564589B2, “Methods for treating cancer, reducing side effects of cancer treatment, and preventing the recurrence of cancer” (Florida State University Research Foundation, Inc., priority 2024, dated 2026):

System: patient derived H3.3K27M mutant DIPG cells
Test: Cell survival assay in patient derived H3.3K27M mutant DIPG cells
Assay type: cell-based, human
Details: 75 nM for 7 days
Protocol: Patient derived glioblastoma cells carrying either wild type (WT) H3.3 or the H3.3 K27M mutant were either left untreated (UT) or treated with 75 nM Vorinostat (Vor) for 16 hours before harvesting them, acid extracting total histones and processing them for Western blotting using antibodies specific to the indicated acetylated (Ac) histones. Ponceau staining of the total histones is shown as a loading control. […] The indicated cells were either left untreated or treated with 75 nM of the FDA approved HDACi Vorinostat (Vor; trade name Zolinza) for 7 days before counting the surviving cells. The structure of Vor is also shown. […] The indicated cells were either left untreated or treated with a very low dose of Vor (10 nM) either with or without a low 1 Gy dose of radiation and surviving cells were counted one week later. […]
Except for the viability assays performed in FIGS. 1A-1G that were scored by flow cytometry using the violet fluorescent Live/Dead cell staining kit (Invitrogen) following the manufacturer's instructions, all the remaining viability assays were performed as following. […] The surviving cells were then counted on a Beckman Coulter particle and size analyzer, typically set to count all particles with a size greater than 8 μm (but was adjusted as needed based on cell size for different cell types). […]

## O=C(CCCCCCC(=O)Nc1ccccc1)NO [Vorinostat]
  killing of H3.3 K27M mutant DIPG cells: specifically kills
